Reference: PMC8809913
These are yes or no findings as the source states them, for the method shown. In cells and extracts the contact can be indirect. Some binding calls cover weakened binding; strength is not graded here.

By UniProt entry, the sequences of proteins in these tests, tags left out.
UniProt P25490: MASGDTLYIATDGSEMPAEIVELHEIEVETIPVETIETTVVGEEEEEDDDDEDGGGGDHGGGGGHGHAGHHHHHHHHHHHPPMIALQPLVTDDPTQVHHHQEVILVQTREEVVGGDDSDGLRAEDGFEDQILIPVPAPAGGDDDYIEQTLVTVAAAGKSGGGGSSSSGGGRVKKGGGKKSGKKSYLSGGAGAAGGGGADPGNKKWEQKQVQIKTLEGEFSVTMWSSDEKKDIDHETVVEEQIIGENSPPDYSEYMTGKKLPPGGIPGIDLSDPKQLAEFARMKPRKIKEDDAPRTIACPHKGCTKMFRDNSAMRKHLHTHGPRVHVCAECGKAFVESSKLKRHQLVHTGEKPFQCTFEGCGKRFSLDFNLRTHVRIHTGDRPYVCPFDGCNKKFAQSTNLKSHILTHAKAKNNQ

Target: Transcription factor Yin Yang 1 (YY1) (human (endogenous in T24 and 5637)) (UniProt P25490)
Test: co-IP; lysates (300 uL) of T24 and 5637 cells incubated with 2 ug YY1 or IgG antibody for 30 min at 4°C, then protein A/G beads overnight at 4°C; beads washed three times with PBS; western blotting

- binding: binds
B1: Cartilage acidic protein 1 (CRTAC1) (protein, UniProt Q9NQ79 28-661)
chain: SQRAEPMFTAVTNSVLPPDYDSNPTQLNYGVAVTDVDHDGDFEIVVAGYNGPNLVLKYDRAQKRLVNIAVDERSSPYYALRDRQGNAIGVTACDIDGDGREEIYFLNTNNAFSGVATYTDKLFKFRNNRWEDILSDEVNVARGVASLFAGRSVACVDRKGSGRYSIYIANYAYGNVGPDALIEMDPEASDLSRGILALRDVAAEAGVSKYTGGRGVSVGPILSSSASDIFCDNENGPNFLFHNRGDGTFVDAAASAGVDDPHQHGRGVALADFNRDGKVDIVYGNWNGPHRLYLQMSTHGKVRFRDIASPKFSMPSPVRTVITADFDNDQELEIFFNNIAYRSSSANRLFRVIRREHGDPLIEELNPGDALEPEGRGTGGVVTDFDGDGMLDLILSHGESMAQPLSVFRGNQGFNNNWLRVVPRTRFGAFARGAKVVLYTKKSGAHLRIIDGGSGYLCEMEPVAHFGLGKDEASSVEVTWPDGKMVSRNVASGEMNSVLEILYPRDEDTLQDPAPLECGQGFSQQENGHCMDTNECIQFPFVCPRDKPVCVNTYGSYRCRTNKKCSRGYEPNEDGTACVGTLGQSPGPRPTTPTAAAATAAAAAAAGAATAAPVLVDGDLNLGSVVKESCEPSC
